Article PMC6102298

Target: mCherry-Mcl-1ΔTM (human)
Assay: FRET or BRET; FRET/FLIM in fixed MCF7 cells co-transfected with EGFP (donor) and mCherry (acceptor) fusions, medium with 10 µM Q-VD-OPh; EGFP fluorescence lifetime, 470 nm pulsed laser

- binding: no binding
B1: EGFP-Bok (protein, UniProt Q9UMX3 1-212)
chain: MEVLRRSSVFAAEIMDAFDRSPTDKELVAQAKALGREYVHARLLRAGLSWSAPERAAPVPGRLAEVCAVLLRLGDELEMIRPSVYRNVARQLHISLQSEPVVTDAFLAVAGHIFSAGITWGKVVSLYAVAAGLAVDCVRQAQPAMVHALVDCLGEFVRKTLATWLRRRGGWTDVLKCVVSTDPGLRSHWLVAALCSFGRFLKAAFFVLLPER

These are yes or no findings as the source states them, for the method shown. In cells and extracts the contact can be indirect. Where a sequence is shown, tags or fusion partners need not be part of it.
